The source of these data is publication doi:10.1101/2022.05.11.491529.

By UniProt entry, the sequences of proteins in these tests, tags left out. Where a name states a change or a piece, a line headed by the entry shows the natural chain unless it says otherwise.
UniProt O08579: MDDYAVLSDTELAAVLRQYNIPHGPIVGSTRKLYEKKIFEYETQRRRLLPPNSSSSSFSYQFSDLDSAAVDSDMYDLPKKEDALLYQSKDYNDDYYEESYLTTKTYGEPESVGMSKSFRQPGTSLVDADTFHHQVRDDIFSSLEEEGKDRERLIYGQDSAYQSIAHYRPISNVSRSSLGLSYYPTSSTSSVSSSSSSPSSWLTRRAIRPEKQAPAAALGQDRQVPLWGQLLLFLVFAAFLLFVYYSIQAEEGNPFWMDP
UniProt Q3U9G9: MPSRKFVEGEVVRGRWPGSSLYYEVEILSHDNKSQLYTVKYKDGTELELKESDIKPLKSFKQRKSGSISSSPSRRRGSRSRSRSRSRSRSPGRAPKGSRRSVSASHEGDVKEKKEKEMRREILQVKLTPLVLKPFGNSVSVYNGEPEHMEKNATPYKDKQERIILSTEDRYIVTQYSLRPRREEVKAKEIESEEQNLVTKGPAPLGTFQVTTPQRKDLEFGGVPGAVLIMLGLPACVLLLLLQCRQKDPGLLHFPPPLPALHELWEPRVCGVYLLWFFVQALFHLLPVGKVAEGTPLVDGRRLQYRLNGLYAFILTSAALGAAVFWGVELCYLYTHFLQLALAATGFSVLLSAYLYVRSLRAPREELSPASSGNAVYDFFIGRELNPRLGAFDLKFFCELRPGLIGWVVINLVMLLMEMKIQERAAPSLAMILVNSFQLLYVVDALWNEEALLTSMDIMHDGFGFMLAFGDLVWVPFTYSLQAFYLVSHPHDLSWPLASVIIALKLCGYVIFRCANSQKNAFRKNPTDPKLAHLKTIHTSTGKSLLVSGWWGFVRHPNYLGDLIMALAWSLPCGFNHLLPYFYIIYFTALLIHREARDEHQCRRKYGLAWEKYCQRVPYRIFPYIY
UniProt Q8VEL0: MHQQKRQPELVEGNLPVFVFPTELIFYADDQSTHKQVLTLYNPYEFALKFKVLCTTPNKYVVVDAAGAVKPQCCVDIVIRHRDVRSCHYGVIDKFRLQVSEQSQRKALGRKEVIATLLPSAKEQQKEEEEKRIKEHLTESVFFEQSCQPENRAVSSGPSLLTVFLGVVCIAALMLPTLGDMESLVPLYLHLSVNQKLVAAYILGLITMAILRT
UniProt Q921T2: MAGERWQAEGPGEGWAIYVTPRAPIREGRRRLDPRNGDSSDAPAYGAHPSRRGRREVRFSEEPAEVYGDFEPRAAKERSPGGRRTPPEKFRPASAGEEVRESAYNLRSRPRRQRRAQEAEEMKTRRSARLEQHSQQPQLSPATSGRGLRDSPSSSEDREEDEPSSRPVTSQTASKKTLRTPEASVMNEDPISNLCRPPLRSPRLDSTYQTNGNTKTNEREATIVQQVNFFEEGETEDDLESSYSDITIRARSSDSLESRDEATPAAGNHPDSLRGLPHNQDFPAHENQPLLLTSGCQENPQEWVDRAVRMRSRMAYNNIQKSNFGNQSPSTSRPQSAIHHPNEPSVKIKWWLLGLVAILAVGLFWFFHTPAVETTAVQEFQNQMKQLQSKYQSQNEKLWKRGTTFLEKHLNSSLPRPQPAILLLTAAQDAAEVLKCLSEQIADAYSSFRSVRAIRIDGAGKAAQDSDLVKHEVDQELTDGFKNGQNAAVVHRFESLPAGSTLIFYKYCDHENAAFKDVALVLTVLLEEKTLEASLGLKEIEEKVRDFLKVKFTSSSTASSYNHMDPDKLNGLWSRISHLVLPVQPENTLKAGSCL
UniProt Q61686: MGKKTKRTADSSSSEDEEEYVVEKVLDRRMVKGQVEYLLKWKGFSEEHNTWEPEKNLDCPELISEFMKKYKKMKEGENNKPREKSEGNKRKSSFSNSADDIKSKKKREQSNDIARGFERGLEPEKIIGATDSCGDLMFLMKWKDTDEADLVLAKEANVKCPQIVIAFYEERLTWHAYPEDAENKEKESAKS
UniProt Q6DVA0: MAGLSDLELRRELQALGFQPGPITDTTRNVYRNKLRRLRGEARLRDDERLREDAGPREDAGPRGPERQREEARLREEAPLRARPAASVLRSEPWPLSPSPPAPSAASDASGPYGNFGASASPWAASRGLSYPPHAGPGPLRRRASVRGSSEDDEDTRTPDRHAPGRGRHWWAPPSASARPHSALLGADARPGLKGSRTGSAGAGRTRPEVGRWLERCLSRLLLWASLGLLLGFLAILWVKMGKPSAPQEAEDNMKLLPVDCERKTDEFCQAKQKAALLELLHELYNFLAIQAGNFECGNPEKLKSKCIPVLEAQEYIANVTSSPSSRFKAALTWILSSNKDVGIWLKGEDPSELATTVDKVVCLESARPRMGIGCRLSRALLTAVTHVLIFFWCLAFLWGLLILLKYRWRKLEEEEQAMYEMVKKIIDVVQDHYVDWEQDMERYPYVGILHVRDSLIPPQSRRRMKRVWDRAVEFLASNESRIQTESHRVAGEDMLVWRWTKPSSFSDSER
UniProt P23198: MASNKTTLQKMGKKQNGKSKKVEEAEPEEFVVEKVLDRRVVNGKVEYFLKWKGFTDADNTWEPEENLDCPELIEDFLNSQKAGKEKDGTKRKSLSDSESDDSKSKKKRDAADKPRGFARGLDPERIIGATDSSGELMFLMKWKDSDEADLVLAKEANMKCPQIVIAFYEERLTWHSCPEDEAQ

Assay [1] has as its target V5-tagged TbID fused to the N-terminus of emerin (mouse (cDNA library from C3H/10T1/2 cells)) (UniProt O08579). Description: proximity labelling.
In assay [2] the target is V5-tagged TbID fused to the N-terminus of LBR (mouse (cDNA library from C3H/10T1/2 cells)) (UniProt Q3U9G9). Description: proximity labelling.

No constants are given. Whether binding was seen depends on the method and setting. In cells and extracts the contact can be indirect. Here binding means that the protein was enriched with, or labelled near, the bait; the list need not be complete. For some of these results: No binding means not detected with the bait.

Mospd1 (from UniProt Q8VEL0 1-213): the binding entry in assay [1] is listed as “binds”. On the same count and under the same terms, the entry for TOR1AIP1 (from UniProt Q921T2 1-595) is “binds”. As for “HP1-α (Cbx5) (from UniProt Q61686 1-191)”, the binding entry in assay [2] is listed as “binds”.

For the molecule Lemd2 (from UniProt Q6DVA0 1-511), the binding entry was “no binding” in assay [2] and “binds” in assay [1].

For the molecule “HP1-γ (Cbx3) (from UniProt P23198 1-183)”, the binding entry in assay [2] is listed as “binds”.

B1: Bfar (protein, UniProt Q8R079 1-450)
chain: MEEPQKNDLSMREQEEEHPVRSSGPQISVSEFSCHCCYDTLVNPTTLNCGHSFCRHCLALWWMSSKKTECPECREKWEGFPKVNILLRDAIEKLFPDAIRMRVEDIQQNNDVVQSLAAFQKYGNDQNPLAPSTGRVNPQRGGGFFSGVLTALTGVAVILLVYHWRSRESEHGLLVHKAVDKWTMEEVVLWLEQLGPWASLYRDRFLSERVNGRLLLTLTEEEFSRAPYTIENSSHRRVILTELERVRALGVKPPQNLWEYKAVNPGRSLFLLYALKSSPRLGLLYLYLFDYTDCFLPFIHTICPLQENSSGEDIFTKLLDLREPTWKQWREFLVKYSFLPYQLIAEFAWDWLEVHYWTSRFLIVNAVLLSVLELFSFWRIWSRSELKTVPQRMWSHFWKVSTQGLFMAMFWPLIPQFVCNCLFYWALYFNPIINIDLVVKEVRRLETQVL
Take B1: the binding result in assay [2] and in assay [1] was “binds” throughout.

B2: Nrm (protein, UniProt Q8VC65 1-262)
chain: MAPALLLVPAALASFILAFGTGVEFVRFTSLRPLLGGIPESGGPDARHGWLAALQDRSILASLAWDLCLLLLFVVQHSLMATEAVKAWTSRYFGVLQRSLYVACTALALQLVMRYWETTPRGPVLWEARAEPWATWVPLLCFVLHVVSWLLIFSILLVFDYAELMGLKQVYYHVLGLGEPLSLKSPRALRLFSHLRHPVCVELLTVLWVVPTLGTDRLLLALLFTLYLGLAHGLDQQDLRYLRSQLQRKLHLLSRPQDGEAE
Take B2: the binding result in assay [2] was “no binding”; in assay [1], “binds”.

B3: Rnf185 (protein, UniProt Q91YT2 1-192)
chain: MASKGPSASASTENSNAGGPSGSSNGTGESGGQDSTFECNICLDTAKDAVISLCGHLFCWPCLHQWLETRPNRQVCPVCKAGISRDKVIPLYGRGSTGQQDPREKTPPRPQGQRPEPENRGGFQGFGFGDGGFQMSFGIGAFPFGIFATAFNINDGRPPPAVPGTPQYVDEQFLSRLFLFVALVIMFWLLIA
Take B3: the binding result in assay [2] and in assay [1] was “binds” throughout.

B4: Cgrrf1 (protein, UniProt Q8BMJ7 1-332)
chain: MAAVFLVTLYEYSPLFYIAVVFTCFIVTTGLVLGWFGWDVPVILRNSEETQFSTRAFKKQMRQVKNPFGLEITNSSAASLATGMALRTDCLEDSRLTCYWGCSVQKLYEALQKHAYCFRISTPQALEEALYSDYLHREQYFIKKHSKEEIYCQLPSDTEIEDFGPVPRSRYPLVALLTLADEDDREIYDIISMVSVIHIPDKTYKLPCRILYQYLILAQGQFYDLKQLFMSANNSPPPSNDESPEDRSVEQSLLEKVGLAGNDGDPVEESSRDCVVCQNGGVNWVLLPCRHACLCDSCVRYFKQCPMCRQFVQESFALCGQKEPDKDLLETS
Turning to B4, the binding entry in assay [2] and in assay [1] was “binds” in each case.

B5: Lemd3/MAN1 (protein, UniProt Q9WU40 1-921)
chain: MAAATAAAAPQQLSDEELFSQLRRYGLSPGPVTESTRPVYLKKLKKLREEEQQQQQQQQQQQHRAGGRGNKTRNSNNNNTATAMGGRPGSGDLAYLRSPAGLGRLSASAAESPVAGGSGGAAAVPAAGSKVLLGFSSDESDVEASPREQAGGGGGGGARRDRAALQYRGLRAPPAPPAAGEVTGGHPGERRKPHSWWGARRPAGPEPQPPAAGSDGAAEDADEELADGEDRDPEAEEPLWASRAVNGSRLLPYSSCREHYSDSEEEEEEGEEDGDVAPARQVLKDDSLARHRPRRSHSKPFSALTAKSGGSRQETSVQGGGALAMNDRAAAAGSLDRSRNLEEAAAEPGGGGGGGCGCDPVDSIPRYRAGAKKLAPLLSPPSPDGDSTLESPTGPLLKTNNHIGGGAFGVDSPGLYANSLPPGATAAAAPGTLRINHANHTGSNHTYLKTAYGKPKLCEPEEELLQQFKREEVSPTGSFSAHYLSMFLLTAACLFFLILGLTYLGMRGTGVPEDGGLIKNPFDETFGKIQESEKNLLMSTLYKLHDRLAQIAGDHECGSSSQRMLSVQEAAAYLKNLGPEYEDVFNTSLLWIFKNGKDVGIRCVGYGPEEDLTNITDVQFLQSTRPQMPFWCRFRRAFITVTHRLLLLCLGVVLVCVALRYMRYRWTKEEEETRQMYDMVVKIIDVLRSHNEACQETKDLQPYMPLPHVRDSLIQPQDRKKMKKVWDRAVDFLAANESRVRTETRRVGGADFLVWRWIQPSASCDKTLVIPSKVWQGQAFHLDRRNSPPNSLTPCLKIRNMFDPVMEIGDHWHLAIQEAILEKCSDNDGIVHIAVDRNSREGCVYVKCLSPEYAGKAFKALHGSWFDGKLVTVKYLRLDRYHHRFPQALTCNTPLKPANKHMNSLSHLRLRTGLANSQGSS
Consider B5, for which the binding result in assay [1] is recorded as “binds”.

B6: Lsg1 (protein, UniProt Q3UM18 1-644)
chain: MGRRRAPGGGSLGRVLIRQQTQRSRSHRHTDSWLHTSELNDGYDWGRLNLQSVTEQSSLEDFLATAELAGTEFVAEKLNIKFVPPEARTGLLSFEESQRIKKLHEENRQFLCIPRRPNWDRKTSPEELKQAEKDNFLKWRRQLVRLEEEQKLILTPFERNLDFWRQLWRVIERSDIVVQIVDARNPLLFRCEDLECYVKEIDAAKENVILINKADLLTAEQRFAWAVHFEKEGVKVIFWSALAETDHLNGDLKEEVDSVAGDTNKTESESSSLDANEIPHRDLISLSEESASDSGDSKYEDCQEDEEEDWQTCSEEDSVPEEEEGCNADSETQNRKNAENQQVNNDSYLVSKQELLELFKKLHTGKKVKDGQLTVGLVGYPNVGKSSTINTIMGNKKVSVSATPGHTKHFQTLYVEPGLCLCDCPGLVMPSFVSTKAEMICNGILPIDQMRDHVPPVSLVCQNIPRRVLEVTYGINIIKPREDEDPYRPPTSEELLTAYGCMRGFMTAHGQPDQPRSARYILKDYVGGKLLYCHPPPGKDPVAFQHQHQQLLESKVKGGELRLQPGKGRKAKQIENVVDKTFFHQENVRALTKGVQAVMGYKPGHGLVTAAAASAENVPGKPWKKHGNRNKKEKSRRLYKHLDV
Take B6: the binding result in assay [2] and in assay [1] was “binds” throughout.

B7: VAPA (protein, UniProt Q9WV55 1-249)
chain: MASASGAMAKHEQILVLDPPSDLKFKGPFTDVVTTNLKLQNPSDRKVCFKVKTTAPRRYCVRPNSGIIDPGSIVTVSVMLQPFDYDPNEKSKHKFMVQTIFAPPNISDMEAVWKEAKPDELMDSKLRCVFEMPNENDKLNDMEPSKAVPLNASKQDGPLPKPHSVSLNDTETRKLMEECKRLQGEMMKLSEENRHLRDEGLRLRKVAHSDKPGSTSAVSFRDNVTSPLPSLLVVIAAIFIGFFLGKFIL
For the molecule B7, the binding result in assay [1] is recorded as “binds”.

B8: lamin B1 (protein, UniProt P14733 1-588)
chain: MATATPVQQQRAGSRASAPATPLSPTRLSRLQEKEELRELNDRLAVYIDKVRSLETENSALQLQVTEREEVRGRELTGLKALYETELADARRALDDTARERAKLQIELGKFKAEHDQLLLNYAKKESDLSGAQIKLREYEAALNSKDAALATALGDKKSLEGDLEDLKDQIAQLEASLSAAKKQLADETLLKVDLENRCQSLTEDLEFRKNMYEEEINETRRKHETRLVEVDSGRQIEYEYKLAQALHEMREQHDAQVRLYKEELEQTYHAKLENARLSSEMNTSTVNSAREELMESRMRIESLSSQLSNLQKESRACLERIQELEDMLAKERDNSRRMLSDREREMAEIRDQMQQQLSDYEQLLDVKLALDMEISAYRKLLEGEEERLKLSPSPSSRVTVSRASSSRSVRTTRGKRKRVDVEESEASSSVSISHSASATGNVCIEEIDVDGKFIRLKNTSEQDQPMGGWEMIRKIGDTSVSYKYTSRYVLKAGQTVTVWAANAGVTASPPTDLIWKNQNSWGTGEDVKVILKNSQGEEVAQRSTVFKTTIPEEEEEEEEEPIGVAVEEERFHQQGAPRASNKSCAIM
Consider B8, for which the binding result in assay [2] is given as “binds”.
